Laboratory results: PubChem BioAssay AID1671195 (Yale University, 2021)
Purpose: 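Regulators of LDL receptor activity judged by labelled LDL uptake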 (primary screen). System: human Huh7 hepatoma cells. Knock-down reagent: siRNA pool against human genes, 18 nM. Time to read-out: about 2 to 2.5 days of knockdown, then 8 h LDL uptake. Challenge: DiI-labelled LDL at 30 µg/ml for 8 h, in lipoprotein-deficient serum medium. Measured: 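Per-cell DiI-LDL intensity by automated imaging; well means scaled to the plate median and given as a robust z-score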. Direction: robust z-score: higher = more LDL uptake after knockdown. Call rule: 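a gene counts as active if at least two replicate z-scores exceed ±2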.
Here is an unselected part of about 22,000 reagents. About 1,510 of them (6.9%) were called active. 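Active includes knockdowns raising or lowering LDL uptake; positive z-scores mean more uptake, negative mean less.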 Unmarked entries are inactive. Reagent sequences are not shown.

Gene	robust z-score, replicate 1	robust z-score, replicate 2	robust z-score, replicate 3
CPLANE1	-1.98 (active)	-2.01	-1.99
NXPH1	0.618	1.1	-2.31
IP6K1	-0.955	-1.08	-0.385
RPP38	0.587	0.529	0.862
INTS7	3.13 (active)	4.54	3.19
GRK4	-1.35	-1.53	-1.62
LINC01235	0.817	0.636	0.985
PKD2L2	1.89	2.27	1.77
ELF3	-0.831	0.0328	-0.0882
LOC392238 (retired record)	-0.595	0.224	0.137
CEP112	-0.161	-0.0561	-0.573
IGSF22	1.46	1.11	0.969
CCDC163	2.97	1.8	1.1
SEMA3D	0.164	2.51	1.27
LTB4R	-0.314	-0.553	0.373
SLITRK1	-0.285	-1.73	-0.783

Next part (3 carried over from the part before).
Gene	robust z-score, replicate 1	robust z-score, replicate 2	robust z-score, replicate 3
SEMA3D	0.164	2.51	1.27
LTB4R	-0.314	-0.553	0.373
SLITRK1	-0.285	-1.73	-0.783
EXOC2	1.84	2.48	-0.655
CCDC85A	1.12	-0.618	0.401
CHPT1	0.459	0.106	-0.0662
ASNSD1	-0.228	-0.422	-0.0872
LOC392222 (retired record)	0.891	0.868	0.58
BICD2	0.735	0.488	1.1
PKP4	-0.761	0.555	-0.53
SENP1	0.9	1.49	0.908
ABRAXAS1	1.9 (active)	2.28	1.58
FASTKD2	0.874	-0.486	1.93
HSPBP1	-0.2	-0.714	-0.417
CRISPLD2	2.29	1.54	1.74
